PubChem BioAssay AID652272 – Drosophila RNAi Screening Center – 2013
Purpose: 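Genome-wide knock-down search for components of Hedgehog signalling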 (primary screen). Cell system: Drosophila clone 8 (Cl8) cells. Reagent: long dsRNA against Drosophila genes. Detection: 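Plate reader light from a firefly reporter under a ptc promoter fragment that responds to Hedgehog, with Renilla light as transfection reference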. Scale: firefly Hh reporter signal: higher = more ptc reporter light; Renilla reference signal: higher = more Renilla control light. Call rule: 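Hit when the z-score averaged over two replicates is under -2 or over +3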. Meaning of the calls: active = hit: reporter lowered or raised; inactive = not a hit.
The screen tested about 21,000 reagents; below is an unselected part of those that have a named target and a result. Over the whole deposit, 503 (2.4%) are marked active. 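Raw plate light values, not normalised; calls rest on replicate z-scores that were not deposited; hits include reporter decreases as well as increases.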 Unmarked entries are inactive. A plus sign joins genes that one reagent is predicted to hit. Reagent sequences are not shown. The record does not give: the amount of reagent, the time to read-out.

trh (trachealess) [DRSC08355]
- firefly Hh reporter signal, replicate 1: 1.07e5
- firefly Hh reporter signal, replicate 2: 49456
- Renilla reference signal, replicate 1: 3456
- Renilla reference signal, replicate 2: 3843

trh (trachealess) [DRSC08739]
- firefly Hh reporter signal, replicate 1: 68466
- firefly Hh reporter signal, replicate 2: 41475
- Renilla reference signal, replicate 1: 2221
- Renilla reference signal, replicate 2: 3040

CG14626 [DRSC18631]
- firefly Hh reporter signal, replicate 1: 57040
- firefly Hh reporter signal, replicate 2: 1.82e5
- Renilla reference signal, replicate 1: 1818
- Renilla reference signal, replicate 2: 6924

Fad2 [DRSC11165]
- firefly Hh reporter signal, replicate 1: 18608 (active)
- firefly Hh reporter signal, replicate 2: 12876
- firefly Hh reporter signal, replicate 3: 29943
- Renilla reference signal, replicate 1: 2941
- Renilla reference signal, replicate 2: 2999

RpS19a (Ribosomal protein S19a) [DRSC20281]
- firefly Hh reporter signal, replicate 1: 30741 (active)
- firefly Hh reporter signal, replicate 2: 70855
- Renilla reference signal, replicate 1: 2260
- Renilla reference signal, replicate 2: 7079

CG33095 [DRSC14441]
- firefly Hh reporter signal, replicate 1: 4.71e5
- firefly Hh reporter signal, replicate 2: 75866
- Renilla reference signal, replicate 1: 24856
- Renilla reference signal, replicate 2: 2219

RpS3A (Ribosomal protein S3A) [DRSC17168]
- firefly Hh reporter signal, replicate 1: 65305 (active)
- firefly Hh reporter signal, replicate 2: 28999
- Renilla reference signal, replicate 1: 5159
- Renilla reference signal, replicate 2: 1923

Cep97 (Centrosomal protein 97kDa) [DRSC00637]
- firefly Hh reporter signal, replicate 1: 1.00e5
- firefly Hh reporter signal, replicate 2: 91081
- Renilla reference signal, replicate 1: 4009
- Renilla reference signal, replicate 2: 3936

Calr (Calreticulin) [DRSC16614]
- firefly Hh reporter signal, replicate 1: 39783 (active)
- firefly Hh reporter signal, replicate 2: 46714
- Renilla reference signal, replicate 1: 1749
- Renilla reference signal, replicate 2: 2384

Reagents listed so far with an active call (4):
Fad2 [DRSC11165]
- firefly Hh reporter signal, replicate 1: 18608 (active)
- firefly Hh reporter signal, replicate 2: 12876
- firefly Hh reporter signal, replicate 3: 29943
- Renilla reference signal, replicate 1: 2941
- Renilla reference signal, replicate 2: 2999

RpS19a (Ribosomal protein S19a) [DRSC20281]
- firefly Hh reporter signal, replicate 1: 30741 (active)
- firefly Hh reporter signal, replicate 2: 70855
- Renilla reference signal, replicate 1: 2260
- Renilla reference signal, replicate 2: 7079

RpS3A (Ribosomal protein S3A) [DRSC17168]
- firefly Hh reporter signal, replicate 1: 65305 (active)
- firefly Hh reporter signal, replicate 2: 28999
- Renilla reference signal, replicate 1: 5159
- Renilla reference signal, replicate 2: 1923

Calr (Calreticulin) [DRSC16614]
- firefly Hh reporter signal, replicate 1: 39783 (active)
- firefly Hh reporter signal, replicate 2: 46714
- Renilla reference signal, replicate 1: 1749
- Renilla reference signal, replicate 2: 2384

The results go on.
fu (fused) [DRSC20333]
- firefly Hh reporter signal, replicate 1: 1.06e5 (active)
- firefly Hh reporter signal, replicate 2: 34272
- Renilla reference signal, replicate 1: 14421
- Renilla reference signal, replicate 2: 1238

rudhira [DRSC19821]
- firefly Hh reporter signal, replicate 1: 68042
- firefly Hh reporter signal, replicate 2: 45692
- Renilla reference signal, replicate 1: 1952
- Renilla reference signal, replicate 2: 1133

CG8170 [DRSC07087]
- firefly Hh reporter signal, replicate 1: 63798
- firefly Hh reporter signal, replicate 2: 48412
- Renilla reference signal, replicate 1: 1707
- Renilla reference signal, replicate 2: 4374

trbl (tribbles) [DRSC11901]
- firefly Hh reporter signal, replicate 1: 85284
- firefly Hh reporter signal, replicate 2: 80851
- Renilla reference signal, replicate 1: 3216
- Renilla reference signal, replicate 2: 2112

Idgf3 (Imaginal disc growth factor 3) [DRSC03351]
- firefly Hh reporter signal, replicate 1: 65025
- firefly Hh reporter signal, replicate 2: 26032
- Renilla reference signal, replicate 1: 2791
- Renilla reference signal, replicate 2: 1227

Trm7-34 (tRNA methyltransferase 7-34) [DRSC16171]
- firefly Hh reporter signal, replicate 1: 6.23e5
- firefly Hh reporter signal, replicate 2: 1.05e5
- Renilla reference signal, replicate 1: 29709
- Renilla reference signal, replicate 2: 520

Delta [DRSC16648]
- firefly Hh reporter signal, replicate 1: 6.56e5
- firefly Hh reporter signal, replicate 2: 96201
- Renilla reference signal, replicate 1: 31453
- Renilla reference signal, replicate 2: 2601

VhaAC45RP (VhaAC45-related protein) [DRSC15423]
- firefly Hh reporter signal, replicate 1: 4.65e5
- firefly Hh reporter signal, replicate 2: 81067
- Renilla reference signal, replicate 1: 3420
- Renilla reference signal, replicate 2: 3420

CG1503 [DRSC20512]
- firefly Hh reporter signal, replicate 1: 81482
- firefly Hh reporter signal, replicate 2: 97528
- Renilla reference signal, replicate 1: 1952
- Renilla reference signal, replicate 2: 1975

nis [DRSC00290]
- firefly Hh reporter signal, replicate 1: 67728 (active)
- firefly Hh reporter signal, replicate 2: 65602
- Renilla reference signal, replicate 1: 4544
- Renilla reference signal, replicate 2: 4279

CG42507 + Trl [DRSC09325]
- firefly Hh reporter signal, replicate 1: 2.37e5
- Renilla reference signal, replicate 1: 5562

CG42507 + Trl [DRSC11308]
- firefly Hh reporter signal, replicate 1: 24896
- firefly Hh reporter signal, replicate 2: 16349
- Renilla reference signal, replicate 1: 1257
- Renilla reference signal, replicate 2: 725
